According to PMC5722368:
Results are given in words; binding and its absence hold for the method and conditions named. Binding can be weak; no strength is given. Tags and fused reporters may be left off the sequences shown.

Molecular target: T1, Schistosoma mansoni histone deacetylase 8 (SmHDAC8), Gal4-DBD bait fusion (S. mansoni) (UniProt A5H660)
T1 sequence: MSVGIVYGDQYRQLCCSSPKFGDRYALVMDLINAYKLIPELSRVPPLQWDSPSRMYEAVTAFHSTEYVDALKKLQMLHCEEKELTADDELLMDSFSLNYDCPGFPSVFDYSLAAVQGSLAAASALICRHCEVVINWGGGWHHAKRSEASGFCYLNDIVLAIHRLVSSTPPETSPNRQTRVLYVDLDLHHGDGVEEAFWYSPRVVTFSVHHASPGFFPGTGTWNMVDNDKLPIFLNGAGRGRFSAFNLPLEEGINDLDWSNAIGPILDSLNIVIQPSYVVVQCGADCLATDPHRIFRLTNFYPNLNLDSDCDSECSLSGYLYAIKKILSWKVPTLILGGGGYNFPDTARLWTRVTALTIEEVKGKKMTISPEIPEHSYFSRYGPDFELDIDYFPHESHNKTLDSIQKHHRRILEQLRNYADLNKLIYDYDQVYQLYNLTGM
Assay: two-hybrid; screen of an S. mansoni adult worm cDNA library (Gal4-AD, pGADT7, AH109) with Gal4-DBD-SmHDAC8 bait (pGBKT7, Y187); mating; selection on medium lacking adenine, histidine, leucine and tryptophan, 30°C, 5 days; restreaking and liquid LacZ assay

For actin 5c (S. mansoni), the binding was “binds”.
